# Paper PMC2719804
# These are yes or no findings as the source states them, for the method shown. In cells and extracts the contact can be indirect. Some results given as binding are weak or reduced against the parent protein; the word gives no strength. Sequences can lack the tags named with a protein.
# T1: Vav1^GEF− (Vav1 L278Q fused to GFP) (UniProt P15498)
# T1 sequence: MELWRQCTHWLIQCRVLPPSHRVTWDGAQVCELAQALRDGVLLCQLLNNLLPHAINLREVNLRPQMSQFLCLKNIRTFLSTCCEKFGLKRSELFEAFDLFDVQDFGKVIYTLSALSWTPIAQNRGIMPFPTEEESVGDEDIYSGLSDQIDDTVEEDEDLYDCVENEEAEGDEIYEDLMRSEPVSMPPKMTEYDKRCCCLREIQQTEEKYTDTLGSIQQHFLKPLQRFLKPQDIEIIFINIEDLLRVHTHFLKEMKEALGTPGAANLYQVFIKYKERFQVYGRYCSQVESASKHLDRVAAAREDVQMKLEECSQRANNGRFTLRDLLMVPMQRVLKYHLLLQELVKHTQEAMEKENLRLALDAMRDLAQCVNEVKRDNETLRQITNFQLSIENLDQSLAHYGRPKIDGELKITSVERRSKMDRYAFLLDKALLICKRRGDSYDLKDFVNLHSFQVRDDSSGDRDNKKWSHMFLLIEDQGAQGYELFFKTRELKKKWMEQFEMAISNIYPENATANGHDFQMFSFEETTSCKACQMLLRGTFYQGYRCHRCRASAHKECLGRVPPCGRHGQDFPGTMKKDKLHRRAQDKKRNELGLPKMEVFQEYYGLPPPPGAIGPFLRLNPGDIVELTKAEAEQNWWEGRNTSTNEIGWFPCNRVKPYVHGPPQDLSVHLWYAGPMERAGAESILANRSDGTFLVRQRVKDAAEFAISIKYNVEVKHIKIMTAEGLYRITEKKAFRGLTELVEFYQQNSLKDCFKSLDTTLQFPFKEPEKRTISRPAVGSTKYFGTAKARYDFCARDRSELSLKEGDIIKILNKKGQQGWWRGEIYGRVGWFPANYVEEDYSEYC
# T2: Vav1-GFP (Vav1^WT) (UniProt P15498)
# T2 sequence: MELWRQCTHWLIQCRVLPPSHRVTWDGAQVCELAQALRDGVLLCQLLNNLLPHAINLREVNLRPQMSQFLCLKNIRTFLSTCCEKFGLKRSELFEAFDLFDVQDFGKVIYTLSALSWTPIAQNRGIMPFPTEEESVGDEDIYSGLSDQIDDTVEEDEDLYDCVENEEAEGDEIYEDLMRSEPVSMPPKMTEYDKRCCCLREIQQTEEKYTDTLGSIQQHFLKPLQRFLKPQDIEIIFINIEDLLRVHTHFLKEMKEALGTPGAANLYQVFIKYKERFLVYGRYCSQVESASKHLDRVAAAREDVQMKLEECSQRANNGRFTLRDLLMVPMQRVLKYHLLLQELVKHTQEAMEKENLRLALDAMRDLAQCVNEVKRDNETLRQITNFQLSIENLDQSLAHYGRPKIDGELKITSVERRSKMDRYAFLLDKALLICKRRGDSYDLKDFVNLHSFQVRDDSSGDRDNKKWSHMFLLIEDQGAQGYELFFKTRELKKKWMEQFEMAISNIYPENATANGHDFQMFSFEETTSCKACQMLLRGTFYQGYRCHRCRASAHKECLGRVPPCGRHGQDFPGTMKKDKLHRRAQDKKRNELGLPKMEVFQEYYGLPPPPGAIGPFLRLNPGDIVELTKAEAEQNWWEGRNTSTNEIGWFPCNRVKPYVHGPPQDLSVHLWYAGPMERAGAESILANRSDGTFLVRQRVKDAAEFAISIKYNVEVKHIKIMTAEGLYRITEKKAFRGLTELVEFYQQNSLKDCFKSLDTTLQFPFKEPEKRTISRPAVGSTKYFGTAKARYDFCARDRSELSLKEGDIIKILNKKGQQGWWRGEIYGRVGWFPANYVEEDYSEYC
# Legend:
# [1] = biological target: T1, Vav1^GEF− (Vav1 L278Q fused to GFP); assay: co-IP; Vav1 immunoprecipitated from anti-CD3-stimulated J.Vav1^WT and J.Vav1^GEF− cells (RIPA lysate); blots reprobed with anti-SLP-76 antibodies; non-stimulated cells as control
# Vav1-GFP (Vav1^WT) = biological target: T2, Vav1-GFP (Vav1^WT); assay: as above
binder,measurement,setting,value
"SLP-76 (protein, UniProt Q13094 1-533) MALRNVPFRSEVLGWDPDSLADYFKKLNYKDCEKAVKKYHIDGARFLNLTENDIQKFPKLRVPILSKLSQEINKNEERRSIFTRKPQVPRFPEETESHEEDNGGWSSFEEDDYESPNDDQDGEDDGDYESPNEEEEAPVEDDADYEPPPSNDEEALQNSILPAKPFPNSNSMYIDRPPSGKTPQQPPVPPQRPMAALPPPPAGRNHSPLPPPQTNHEEPSRSRNHKTAKLPAPSIDRSTKPPLDRSLAPFDREPFTLGKKPPFSDKPSIPAGRSLGEHLPKIQKPPLPPTTERHERSSPLPGKKPPVPKHGWGPDRRENDEDDVHQRPLPQPALLPMSSNTFPSRSTKPSPMNPLPSSHMPGAFSESNSSFPQSASLPPYFSQGPSNRPPIRAEGRNFPLPLPNKPRPPSPAEEENSLNEEWYVSYITRPEAEAALRKINQDGTFLVRDSSKKTTTNPYVLMVLYKDKVYNIQIRYQKESQVYLLGTGLRGKEDFLSVSDIIDYFRKMPLLLIDGKNRGSRYQCTLTHAAGYP",binding,[1],binds
same,binding,Vav1-GFP (Vav1^WT),binds
